Measured values: paper PMC11549447
No constants are given. Whether binding was seen depends on the method and setting. Binding seen in cells or lysates may run through a third protein. Some results given as binding are weak or reduced against the parent protein; the word gives no strength. For some assays here: Tags and fused reporters may be left off the sequences shown.

Amino acid sequences for entries named in this document (tags omitted).
UniProt P04150: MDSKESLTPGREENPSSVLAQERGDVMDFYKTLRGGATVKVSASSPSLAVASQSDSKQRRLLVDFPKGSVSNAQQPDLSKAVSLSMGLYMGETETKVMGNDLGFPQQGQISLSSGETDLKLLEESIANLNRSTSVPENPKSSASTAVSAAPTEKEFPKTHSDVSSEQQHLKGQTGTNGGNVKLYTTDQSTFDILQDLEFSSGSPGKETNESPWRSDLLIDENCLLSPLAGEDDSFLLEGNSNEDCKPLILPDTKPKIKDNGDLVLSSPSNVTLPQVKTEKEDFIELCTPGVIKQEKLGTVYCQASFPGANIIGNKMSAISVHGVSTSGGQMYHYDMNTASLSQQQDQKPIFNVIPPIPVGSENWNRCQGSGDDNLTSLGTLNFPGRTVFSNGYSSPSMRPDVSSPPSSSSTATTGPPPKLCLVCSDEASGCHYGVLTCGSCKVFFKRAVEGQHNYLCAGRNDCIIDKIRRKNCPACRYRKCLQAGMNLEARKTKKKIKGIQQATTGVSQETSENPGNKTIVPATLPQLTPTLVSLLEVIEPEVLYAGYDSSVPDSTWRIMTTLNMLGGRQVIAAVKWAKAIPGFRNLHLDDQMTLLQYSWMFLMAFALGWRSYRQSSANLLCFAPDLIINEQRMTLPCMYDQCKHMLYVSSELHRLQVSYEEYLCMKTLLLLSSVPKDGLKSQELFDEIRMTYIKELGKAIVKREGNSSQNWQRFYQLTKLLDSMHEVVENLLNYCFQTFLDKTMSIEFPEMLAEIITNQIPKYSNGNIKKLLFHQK

T1: serine/threonine protein phosphatase 5 (PP5), wild-type PP5-FLAG (UniProt P53041)
T1 sequence: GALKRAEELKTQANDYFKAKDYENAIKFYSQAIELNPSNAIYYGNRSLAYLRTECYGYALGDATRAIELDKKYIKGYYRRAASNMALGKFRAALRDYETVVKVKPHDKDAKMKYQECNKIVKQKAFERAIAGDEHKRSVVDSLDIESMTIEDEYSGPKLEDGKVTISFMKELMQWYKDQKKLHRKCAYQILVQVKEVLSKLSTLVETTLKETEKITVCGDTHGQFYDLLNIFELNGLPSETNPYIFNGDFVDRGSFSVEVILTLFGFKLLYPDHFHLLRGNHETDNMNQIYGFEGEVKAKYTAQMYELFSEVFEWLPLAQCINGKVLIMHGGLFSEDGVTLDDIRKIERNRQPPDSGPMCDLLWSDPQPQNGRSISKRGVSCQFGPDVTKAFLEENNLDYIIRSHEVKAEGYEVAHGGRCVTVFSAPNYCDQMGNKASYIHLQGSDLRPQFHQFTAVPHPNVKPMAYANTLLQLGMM

T2: PP5-FLAG-K430R, non-SUMOylatable mutant (UniProt P53041)
T2 sequence: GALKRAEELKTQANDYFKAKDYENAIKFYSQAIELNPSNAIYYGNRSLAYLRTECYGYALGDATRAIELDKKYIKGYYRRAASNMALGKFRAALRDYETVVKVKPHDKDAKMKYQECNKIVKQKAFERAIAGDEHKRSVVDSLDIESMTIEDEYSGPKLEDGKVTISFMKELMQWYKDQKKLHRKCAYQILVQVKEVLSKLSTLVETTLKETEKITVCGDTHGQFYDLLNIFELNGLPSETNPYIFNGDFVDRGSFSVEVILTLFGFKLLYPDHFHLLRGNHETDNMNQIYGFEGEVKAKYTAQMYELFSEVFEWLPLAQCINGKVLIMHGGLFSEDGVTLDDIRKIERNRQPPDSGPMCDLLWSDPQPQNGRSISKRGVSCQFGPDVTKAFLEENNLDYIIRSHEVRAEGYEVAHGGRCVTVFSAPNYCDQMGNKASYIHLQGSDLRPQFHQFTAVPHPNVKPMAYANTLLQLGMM

T3: PP5-FLAG-K430Q (UniProt P53041)
T3 sequence: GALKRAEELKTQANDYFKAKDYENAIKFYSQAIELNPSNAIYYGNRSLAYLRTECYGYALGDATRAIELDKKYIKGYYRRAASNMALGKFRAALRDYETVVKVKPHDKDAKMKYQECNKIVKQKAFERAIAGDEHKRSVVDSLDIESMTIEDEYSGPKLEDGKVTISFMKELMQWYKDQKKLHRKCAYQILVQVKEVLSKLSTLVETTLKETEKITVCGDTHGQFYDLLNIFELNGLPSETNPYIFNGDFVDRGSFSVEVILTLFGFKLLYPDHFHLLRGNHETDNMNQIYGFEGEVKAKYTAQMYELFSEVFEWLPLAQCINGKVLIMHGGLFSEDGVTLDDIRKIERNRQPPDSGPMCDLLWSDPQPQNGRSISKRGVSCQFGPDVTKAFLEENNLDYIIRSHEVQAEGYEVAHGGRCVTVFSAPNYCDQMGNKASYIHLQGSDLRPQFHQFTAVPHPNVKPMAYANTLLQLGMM

T4: PP5-FLAG-K430A (UniProt P53041)
T4 sequence: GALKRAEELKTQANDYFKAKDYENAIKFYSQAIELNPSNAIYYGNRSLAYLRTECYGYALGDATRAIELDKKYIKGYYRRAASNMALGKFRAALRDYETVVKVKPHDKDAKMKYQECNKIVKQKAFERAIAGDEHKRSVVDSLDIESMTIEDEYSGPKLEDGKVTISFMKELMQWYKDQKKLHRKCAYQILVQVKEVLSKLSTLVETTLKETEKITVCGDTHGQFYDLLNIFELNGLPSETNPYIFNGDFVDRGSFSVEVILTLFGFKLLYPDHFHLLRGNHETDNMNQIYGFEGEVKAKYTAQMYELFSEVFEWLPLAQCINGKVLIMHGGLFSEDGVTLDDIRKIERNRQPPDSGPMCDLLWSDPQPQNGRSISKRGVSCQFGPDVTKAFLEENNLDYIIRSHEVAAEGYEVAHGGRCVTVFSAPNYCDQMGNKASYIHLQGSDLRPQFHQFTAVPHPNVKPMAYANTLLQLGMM


Assays:
[1] = biological target: T1, serine/threonine protein phosphatase 5 (PP5), wild-type PP5-FLAG; assay: co-IP; sequential double IP from HEK293 cells transfected with PP5-FLAG (WT or K430R) and GR: FLAG IP (IP1), elution with 3x FLAG peptide, second IP (IP2) with GR antibody-conjugated agarose; immunoblot
[2] = biological target: T2, PP5-FLAG-K430R, non-SUMOylatable mutant; assay: as above
[3] = biological target: T2, PP5-FLAG-K430R, non-SUMOylatable mutant; assay: co-IP; anti-FLAG agarose IP of PP5-FLAG (WT or mutants) from lysate of transfected HEK293 cells, 2 h at 4 °C; washes in 20 mM Tris-HCl pH 7.4, 100 mM NaCl, 1 mM MgCl2, 0.1% NP40; endogenous partners by immunoblot; some panels with CK1δ-myc co-expressed or 2 µM IC261 for 16 h
PP5-FLAG-K430Q = biological target: T3, PP5-FLAG-K430Q; assay: as above
PP5-FLAG-K430A = biological target: T4, PP5-FLAG-K430A; assay: as above
[4] = biological target: phospho-S211-glucocorticoid receptor, endogenous (human (endogenous in HEK293)) (UniProt P04150); assay: co-IP; endogenous IP from HEK293 lysate with anti-GR-pS211 (IgG as control), protein G agarose; immunoblot

Row | Molecule | binding [3] | binding (PP5-FLAG-K430Q) | binding (PP5-FLAG-K430A) | also measured
1 | glucocorticoid receptor (GR), transfected (from UniProt P04150 1-777) | – | – | – | binding [1]: binds; binding [2]: binds
2 | phospho-S211-glucocorticoid receptor, endogenous (from UniProt P04150 1-777) | binds | – | – | –
3 | phospho-S13-Cdc37, endogenous (protein, UniProt Q16543 1-378, phosphoserine at 13) MVDYSVWDHIEVSDDEDETHPNIDTASLFRWRHQARVERMEQFQKEKEELDRGCRECKRKVAECQRKLKELEVAEGGKAELERLQAEAQQLRKEERSWEQKLEEMRKKEKSMPWNVDTLSKDGFSKSMVNTKPEKTEEDSEEVREQKHKTFVEKYEKQIKHFGMLRRWDDSQKYLSDNVHLVCEETANYLVIWCIDLEVEEKCALMEQVAHQTIVMQFILELAKSLKVDPRACFRQFFTKIKTADRQYMEGFNDELEAFKERVRGRAKLRIEKAMKEYEEEERKKRLGPGGLDPVEVYESLPEELQKCFDVKDVQMLQDAISKMDPTDAKYHMQRCIDSGLWVPNSKASEAKEGEEAGPGDPLLEAVPKTGDEKDVSV | binds | – | – | –
4 | Cdc37, endogenous (protein, UniProt Q16543 1-378) MVDYSVWDHIEVSDDEDETHPNIDTASLFRWRHQARVERMEQFQKEKEELDRGCRECKRKVAECQRKLKELEVAEGGKAELERLQAEAQQLRKEERSWEQKLEEMRKKEKSMPWNVDTLSKDGFSKSMVNTKPEKTEEDSEEVREQKHKTFVEKYEKQIKHFGMLRRWDDSQKYLSDNVHLVCEETANYLVIWCIDLEVEEKCALMEQVAHQTIVMQFILELAKSLKVDPRACFRQFFTKIKTADRQYMEGFNDELEAFKERVRGRAKLRIEKAMKEYEEEERKKRLGPGGLDPVEVYESLPEELQKCFDVKDVQMLQDAISKMDPTDAKYHMQRCIDSGLWVPNSKASEAKEGEEAGPGDPLLEAVPKTGDEKDVSV | binds | binds | binds | –
5 | PP5, endogenous (enzyme, UniProt P53041 1-499) MAMAEGERTECAEPPRDEPPADGALKRAEELKTQANDYFKAKDYENAIKFYSQAIELNPSNAIYYGNRSLAYLRTECYGYALGDATRAIELDKKYIKGYYRRAASNMALGKFRAALRDYETVVKVKPHDKDAKMKYQECNKIVKQKAFERAIAGDEHKRSVVDSLDIESMTIEDEYSGPKLEDGKVTISFMKELMQWYKDQKKLHRKCAYQILVQVKEVLSKLSTLVETTLKETEKITVCGDTHGQFYDLLNIFELNGLPSETNPYIFNGDFVDRGSFSVEVILTLFGFKLLYPDHFHLLRGNHETDNMNQIYGFEGEVKAKYTAQMYELFSEVFEWLPLAQCINGKVLIMHGGLFSEDGVTLDDIRKIERNRQPPDSGPMCDLLWSDPQPQNGRSISKRGVSCQFGPDVTKAFLEENNLDYIIRSHEVKAEGYEVAHGGRCVTVFSAPNYCDQMGNKASYIHLQGSDLRPQFHQFTAVPHPNVKPMAYANTLLQLGMM | – | – | – | binding [4]: binds
6 | FNIP1, endogenous (protein, UniProt Q8TF40 1-1166) MAPTLFQKLFSKRTGLGAPGRDARDPDCGFSWPLPEFDPSQIRLIVYQDCERRGRNVLFDSSVKRRNEDISVSKLGSDAQVKVFGKCCQLKPGGDSSSSLDSSVTSSSDIKDQCLKYQGSRCSSDANMLGEMMFGSVAMSYKGSTLKIHQIRSPPQLMLSKVFTARTGSSICGSLNTLQDSLEFINQDNNTLKADNNTVINGLLGNIGLSQFCSPRRAFSEQGPLRLIRSASFFAVHSNPMDMPGRELNEDRDSGIARSASLSSLLITPFPSPNSSLTRSCASSYQRRWRRSQTTSLENGVFPRWSIEESFNLSDESCGPNPGIVRKKKIAIGVIFSLSKDEDENNKFNEFFFSHFPLFESHMNKLKSAIEQAMKMSRRSADASQRSLAYNRIVDALNEFRTTICNLYTMPRIGEPVWLTMMSGTPEKNHLCYRFMKEFTFLMENASKNQFLPALITAVLTNHLAWVPTVMPNGQPPIKIFLEKHSSQSVDMLAKTHPYNPLWAQLGDLYGAIGSPVRLARTVVVGKRQDMVQRLLYFLTYFIRCSELQETHLLENGEDEAIVMPGTVITTTLEKGEIEESEYVLVTMHRNKSSLLFKESEEIRTPNCNCKYCSHPLLGQNVENISQQEREDIQNSSKELLGISDECQMISPSDCQEENAVDVKQYRDKLRTCFDAKLETVVCTGSVPVDKCALSESGLESTEETWQSEKLLDSDSHTGKAMRSTGMVVEKKPPDKIVPASFSCEAAQTKVTFLIGDSMSPDSDTELRSQAVVDQITRHHTKPLKEERGAIDQHQETKQTTKDQSGESDTQNMVSEEPCELPCWNHSDPESMSLFDEYFNDDSIETRTIDDVPFKTSTDSKDHCCMLEFSKILCTKNNKQNNEFCKCIETVPQDSCKTCFPQQDQRDTLSILVPHGDKESSDKKIAVGTEWDIPRNESSDSALGDSESEDTGHDMTRQVSSYYGGEQEDWAEEDEIPFPGSKLIEVSAVQPNIANFGRSLLGGYCSSYVPDFVLQGIGSDERFRQCLMSDLSHAVQHPVLDEPIAEAVCIIADMDKWTVQVASSQRRVTDNKLGKEVLVSSLVSNLLHSTLQLYKHNLSPNFCVMHLEDRLQELYFKSKMLSEYLRGQMRVHVKELGVVLGIESSDLPLLAAVASTHSPYVAQILL | binds | binds | binds | –
